Source: publication PMC3484135, “A Divalent Ion Is Crucial in the Structure and Dominant-Negative Function of ID Proteins, a Class of Helix-Loop-Helix Transcription Regulators” (PLoS ONE, 2012)
No constants are given. Whether binding was seen depends on the method and setting. Some results given as binding are weak or reduced against the parent protein; the word gives no strength.

Target: T1, E47 HLH (residues 545–606) (UniProt P15923)
T1 sequence: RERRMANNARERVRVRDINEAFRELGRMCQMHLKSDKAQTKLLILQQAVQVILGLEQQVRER
Assay: native gel or EMSA; ID protein serially diluted and incubated 10 min at room temperature with 0.5 uM E47 in 50 mM Tris, 300 mM NaCl, pH 8.0; Cy5-labelled E-box DNA probe and binding buffer added for 15 min; 6% Tris-glycine native gel at 4°C; bound DNA quantified; both purified

B1: ID3 HLH (residues 36–86) (domain or fragment, UniProt Q02535 36-86)
chain: EPLSLLDDMNHCYSRLRELVPGVPRGTQLSQVEILQRVIDYILDLQVVLAE
binding: binds
